Here are results for one molecule from PMC11343839, “Structural mechanism of proton conduction in otopetrin proton channel” (Nature Communications, 2024).

This assay addresses mOTOP2 M374W (Mus musculus) (UniProt Q80SX5). Nature of the assay: cryo-EM structure; single-particle cryo-EM of protein purified in GDN detergent (20 mM Tris, 150 mM NaCl, 0.04% GDN), 3.0 mg/mL; samples at pH 5.0 and 8.0 (CeOTOP8), pH 5.0, 7.0, 8.0 and 9.0 (mOTOP2), pH 8.0 (mOTOP2 M374W); both purified.

These are yes or no findings as the source states them, for the method shown. Some entries that bind do so weakly or less than the wild type.

B1: mOTOP2 M374W (natural protein, Mus musculus)
chain: MSEELVPHPNESLPGPRASPREVWKKGGRLLSVLLAVNVLLLACTLISGGAFNKVAVYDTDVFALLTTMMLLAALWIVFYLLRTARCPDAVPYRDAHAGPIWLRGGLVLFGICTLVMDVFKTGYYSSFFECQSAIKILHPIIQAVFVIVQTYFLWISAKDCIHTHLDLTRCGLMFTLATNLAIWMAAVVDESVHQAHSYSGSHGNTSHTRLNPDSKRAGGAAEEDPCLCSTAICQIFQQGYFYLYPFNIEYSLFASTMLYVMWKNVGRLLASTHGHGHTPSRVSLFRETFFAGPVLGLLLFVVGLAVFILYEVQVSGERGHTRQALVIYYSFNIVCLGLMTLVSLSGSVIYRFDRRAMDHHKNPTRTLDVALLWGAALGQYAISYYSIVAVVVGSPRDLQGALNLSHALLMIAQHTFQNVFIIESLHRGPPGAEPREMPPKEPCQGITFANLDAIRTLPSCPPTPRLVIPNLESPQEAVAIISAPRCHWRRRCLKDISLFLLLCNVILWIMPAFGARPHFSNTVEVDFYGYSLWAAIVNICLPFGIFYRMHAVSSLLEVYVLS
notes: Otopetrin 2 (mOTOP2), Mus musculus, with the point mutation M374W on TM9; same construct as the wild-type channel; The general purification protocol removes His10-GFP with thrombin; also called mOTOP2 M374W loss-of-function mutant; source: HEK293F cells (pEZTBM vector, same construct as the wild type), purified
B1: the binding result was “binds”.
